# From the supplement of paper PMC3334620
# Whole data set: some 33,000 sequences, median “E-score (-0.5 to 0.5)” near -0.0059, cut for the highest 2% near 0.26. This is one part of the list.
# Molecular target: T1, Cin5 (UniProt P40917)
# T1 sequence: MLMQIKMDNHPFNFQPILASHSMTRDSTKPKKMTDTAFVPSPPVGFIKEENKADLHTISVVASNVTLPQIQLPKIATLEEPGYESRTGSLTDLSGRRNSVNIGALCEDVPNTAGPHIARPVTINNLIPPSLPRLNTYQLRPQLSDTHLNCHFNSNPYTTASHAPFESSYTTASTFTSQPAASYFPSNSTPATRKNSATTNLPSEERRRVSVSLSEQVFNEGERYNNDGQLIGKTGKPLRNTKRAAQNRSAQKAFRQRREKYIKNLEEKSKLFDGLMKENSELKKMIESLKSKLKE
# Assay: PBM E-score (8-mer binding enrichment) (E-score (-0.5 to 0.5)); higher = stronger / more preferred TF binding
# Conditions: protein concentration: 100 nM; construct: GST-full length
# Method: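 Universal 'all 10-mer' protein binding microarrays (Agilent AMADID 015681) probed with GST-tagged S. cerevisiae TFs (full-length or DBD) made by in vitro transcription/translation (PURExpress), about 100-200 nM. Bound TF was detected with fluorescent anti-GST. Each ungapped 8-mer (which stands for itself and its reverse complement) is scored by the PBM enrichment score (E-score), a modified Wilcoxon-Mann-Whitney statistic from -0.5 to +0.5, computed with the Universal PBM Analysis Suite. Scale: above 0.35 generally sequence-specific binding.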
row,Sequence,PBM E-score
1,ATGCAGAC,0.0278
2,TCAGGCAA,-0.0467
3,CCCATGAA,-0.0423
4,AGTGATAA,0.087
5,AAAGCAAG,0.187
6,AAGATTCG,0.0694
7,GCTTAAGA,-0.0654
8,AGCTAACG,0.0338
9,CGTTTGCA,0.0764
10,CAATGCTA,0.0669
11,CCGCTCGC,-0.0515
12,AGGCCAAA,-0.0513
13,CAAGGAAC,-0.0303
14,CTGTCGAA,-0.0695
15,GCAGGACA,0.00773
16,CCTCGCTA,-0.279
17,CTGTTACA,0.00053
18,ATATAAGA,0.301
19,AAATAAGA,0.161
20,ACCCGTTA,0.0299
21,CTCAAGGA,-0.0336
22,AAGCGCTG,0.0792
23,ACCCATAG,-0.127
24,TCAGCCGA,-0.0147
25,AAGACCTC,-0.24

# As entered above.
# PBM E-score, AAGCGCTG reads 0.0792
# PBM E-score, ACCCGTTA reads 0.0299

# Later entries:

row,Sequence,PBM E-score
1,CCATAGCA,-0.0162
2,ACCTCGTA,0.128
3,CGCCACAC,-0.0576
4,ATAAAACA,0.0734
5,TAGGGGCA,-0.00465
6,CATACTCA,0.15
7,CGGATGAA,0.208
8,CTTTAAAC,-0.0657
9,GCTCTTCA,-0.157
10,AACCCGGC,-0.103
11,AGTCGGGA,-0.203
12,GACTGCGC,-0.114
13,ATCCATCG,-0.0198
14,ATGTAGAG,-0.0421
15,CCCTCTAG,-0.244
16,CAAAATTG,0.0697
17,CACAATGA,0.125
18,CAGCAGCA,-0.0492
19,AAGTCTGG,-0.0526
20,ATCATATG,0.169
21,AGTCTGCA,-0.211
22,GACTCGCA,-0.00361
23,GATAACGA,0.246
24,CTCAAACC,-0.0558
25,AATGGCGG,0.0507

row,Sequence,PBM E-score
1,ATGCTGCG,-0.146
2,ACTAGTTG,0.0801
3,GTACAGAC,-0.168
4,CCATCTTA,0.0138
5,CACAGTAG,-0.0191
6,CGAGGGAG,-0.158
7,AATCGGTC,0.0656
8,CCCTCTGC,-0.317
9,CCGATACA,0.121
10,CATCTACC,0.129
11,AACACGGA,0.102
12,ATAGTGCG,0.122
13,ACTAAGTA,0.096
14,CCGGCCAC,-0.222
15,AAGGGCGC,-0.0242
16,AGGTATGC,0.137
17,CAGCGTTA,-0.0199
18,TAAATAAA,0.211
19,CGGACTTA,-0.209
20,GACAGGTC,-0.189
21,GCAGGCGA,-0.122
22,CCTTAAGC,-0.123
23,CGACGAGC,-0.13
24,ACTGGGGC,-0.0635
25,TCGGAGAA,-0.108

# Reformatted: results already given.
row | Sequence | PBM E-score
4 | CCATCTTA | 0.0138
5 | CACAGTAG | -0.0191
6 | CGAGGGAG | -0.158

# Further results

row,Sequence,PBM E-score
1,TCGAGCAA,0.0406
2,AGGACATG,-0.0701
3,ATAGGCGA,0.114
4,GGCTGACC,-0.0971
5,AACAATCG,0.0555
6,CGGTCTAC,-0.16
7,GATAACCA,0.178
8,CGTTAGTA,0.158
9,AACTAGTG,-0.034
10,CGTCCGAG,-0.0954
11,CAATCCTA,-0.104
12,AGTCGGGG,-0.205
13,AGACCTAG,-0.0761
14,CCCCTAGC,-0.32
15,GGCACGCA,-0.152
16,ACAGTAAC,0.177
17,ACGCGGGG,0.109
18,CACTGCTA,-0.0897
19,CTATCACC,-0.119
20,AGACGCTC,-0.288
21,AGATCCCA,-0.0937
22,CTTTACAA,0.0323
23,CTTCTTGA,0.023
24,AAATACGT,0.1
25,CTCTGCGA,-0.102

row,Sequence,PBM E-score
1,CTCGTTAC,0.036
2,TATGTCGA,0.0777
3,CCGACCCC,-0.304
4,AAGGCTCC,-0.406
5,AACGAACG,-0.0166
6,CTTGTCTA,-0.0372
7,AGATTGTC,-0.0529
8,GGAGTCAA,-0.0731
9,ACCAGAGA,0.0441
10,GGCGAATA,0.14
11,GCACTAAA,0.0831
12,ACTGGACG,-0.0204
13,CAGCTGGA,0.123
14,GTTAACGA,0.112
15,GCTAGGCC,-0.164
16,AACTATGG,-0.0546
17,AGTATTAT,0.0851
18,AGAACTTC,-0.217
19,CTATTTGA,0.207
20,TAATGTCA,0.177
21,GAAGATAC,0.0803
22,CCCACCCA,0.21
23,AACTAGGA,-0.00449
24,AGGACAGG,-0.224
25,CAAAAATG,0.0633

row,Sequence,PBM E-score
1,AAAGGTTG,-0.127
2,CCTGACGC,-0.227
3,AGAGCGCG,-0.0758
4,CCCTATTA,-0.0143
5,ACAGGGTG,-0.183
6,ATCTCAAC,0.154
7,CAGGCCAA,-0.149
8,AGTTAACT,0.069
9,CATGTCAA,-0.0622
10,CCAAAGCG,-0.0566
11,ATATTGGG,0.131
12,GAATCAGC,-0.00827
13,AATGACCC,-0.00437
14,AATACGCG,0.0568
15,CCCCTATA,-0.113
16,TATCATCA,0.203
17,ACTCGATA,0.147
18,CATCGAAA,-0.0105
19,AATGTCGG,-0.0577
20,CCGTGTCG,-0.195
21,ACAGAGCC,-0.0715
22,GTCAACTA,0.171
23,ACAGCGGT,-0.0911
24,GGCGTTAA,-0.0937
25,ATCACGGA,0.211

row,Sequence,PBM E-score
1,CTACGTCA,-0.0458
2,CACGTTAG,-0.0237
3,CACCAATC,0.133
4,CTGGCAGA,-0.107
5,ACGAGTCT,-0.141
6,GCCAGACC,-0.216
7,CTACGGAG,-0.0842
8,CAAGCTAC,-0.105
9,AGGGCTTG,-0.045
10,CGGGATAG,0.0723
11,ATGCGCCC,0.0735
12,AGCTGGAG,-0.165
13,ATCGTTTA,0.125
14,CGTTGGGA,-0.0923
15,GACAGTAA,0.111
16,TGAATAAA,0.0484
17,ATGAAGGG,-0.0851
18,ACAATTCC,0.111
19,ACAACGAA,0.166
20,CGCCGAAG,-0.0766
21,ACCACTGG,0.00337
22,ACTGCAAT,0.107
